Laboratory results from PubChem BioAssay (EPA / NIEHS).
The shares of active, inactive and inconclusive entries below differ from those in the screen. For some of these results: Potencies beside an inconclusive call are fits to weak or partial responses and may not hold up. Calls of active or inactive are those of the source. How the source made its calls: active means hit-call score of the fitted dose curve at least 0.9, where 1 is the maximum; inconclusive means response in the unintended direction; inactive means score below 0.9.

By UniProt entry, the sequences of proteins in these tests, tags left out. Where a name states a change or a piece, a line headed by the entry shows the natural chain unless it says otherwise.
UniProt P20813: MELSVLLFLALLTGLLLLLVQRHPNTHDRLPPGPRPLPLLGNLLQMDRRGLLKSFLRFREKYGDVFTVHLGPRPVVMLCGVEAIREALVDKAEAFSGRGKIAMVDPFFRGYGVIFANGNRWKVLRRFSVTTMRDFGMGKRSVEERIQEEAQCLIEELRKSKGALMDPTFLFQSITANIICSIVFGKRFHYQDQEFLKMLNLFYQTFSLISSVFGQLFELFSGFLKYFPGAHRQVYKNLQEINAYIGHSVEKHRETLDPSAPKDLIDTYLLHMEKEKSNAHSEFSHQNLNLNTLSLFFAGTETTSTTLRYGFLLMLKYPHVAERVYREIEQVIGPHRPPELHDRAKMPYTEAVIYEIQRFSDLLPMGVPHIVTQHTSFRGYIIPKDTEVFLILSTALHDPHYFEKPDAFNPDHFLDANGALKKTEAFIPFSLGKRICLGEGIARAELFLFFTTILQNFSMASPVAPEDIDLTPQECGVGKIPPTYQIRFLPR
UniProt Q9UNQ0: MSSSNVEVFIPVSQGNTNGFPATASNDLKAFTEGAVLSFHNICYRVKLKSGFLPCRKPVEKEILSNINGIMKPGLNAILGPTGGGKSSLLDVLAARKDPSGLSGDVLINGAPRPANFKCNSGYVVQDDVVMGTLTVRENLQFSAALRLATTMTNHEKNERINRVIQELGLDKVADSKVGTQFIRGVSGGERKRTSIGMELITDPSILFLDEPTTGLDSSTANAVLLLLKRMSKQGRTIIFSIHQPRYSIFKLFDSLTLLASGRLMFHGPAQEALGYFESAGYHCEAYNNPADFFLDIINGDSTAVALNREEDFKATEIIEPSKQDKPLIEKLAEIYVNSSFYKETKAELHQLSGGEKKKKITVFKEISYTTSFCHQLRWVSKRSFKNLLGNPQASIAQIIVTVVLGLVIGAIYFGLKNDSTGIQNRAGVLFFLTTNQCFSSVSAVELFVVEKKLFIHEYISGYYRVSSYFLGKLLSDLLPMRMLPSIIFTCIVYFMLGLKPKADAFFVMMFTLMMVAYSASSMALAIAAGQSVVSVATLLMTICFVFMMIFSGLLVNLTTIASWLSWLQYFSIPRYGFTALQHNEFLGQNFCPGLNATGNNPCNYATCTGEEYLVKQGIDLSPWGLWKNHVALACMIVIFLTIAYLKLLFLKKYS
UniProt P51878: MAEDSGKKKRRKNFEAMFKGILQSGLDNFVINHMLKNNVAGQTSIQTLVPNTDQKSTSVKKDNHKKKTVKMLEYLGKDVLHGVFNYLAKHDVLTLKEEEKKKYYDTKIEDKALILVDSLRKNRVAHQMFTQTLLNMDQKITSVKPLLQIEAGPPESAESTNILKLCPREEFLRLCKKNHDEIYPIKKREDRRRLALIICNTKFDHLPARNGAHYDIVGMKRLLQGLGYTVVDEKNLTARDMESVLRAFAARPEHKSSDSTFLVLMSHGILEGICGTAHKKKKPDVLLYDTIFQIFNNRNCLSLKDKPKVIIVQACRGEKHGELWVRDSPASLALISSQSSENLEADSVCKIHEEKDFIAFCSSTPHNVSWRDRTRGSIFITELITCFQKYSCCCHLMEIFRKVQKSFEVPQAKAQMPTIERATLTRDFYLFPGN
UniProt P08219: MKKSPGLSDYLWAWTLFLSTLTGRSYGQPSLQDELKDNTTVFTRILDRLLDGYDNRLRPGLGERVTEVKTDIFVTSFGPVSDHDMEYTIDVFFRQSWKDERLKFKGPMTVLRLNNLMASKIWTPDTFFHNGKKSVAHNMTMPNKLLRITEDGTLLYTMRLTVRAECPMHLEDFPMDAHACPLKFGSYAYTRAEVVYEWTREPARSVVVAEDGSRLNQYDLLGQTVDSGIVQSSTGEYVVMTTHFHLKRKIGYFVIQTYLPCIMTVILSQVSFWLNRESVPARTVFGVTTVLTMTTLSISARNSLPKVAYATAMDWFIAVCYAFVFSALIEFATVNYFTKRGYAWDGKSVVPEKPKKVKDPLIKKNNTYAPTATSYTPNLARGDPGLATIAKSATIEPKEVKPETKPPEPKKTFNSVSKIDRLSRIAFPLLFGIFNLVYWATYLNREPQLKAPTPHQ
UniProt P08684, whole entry, looked up: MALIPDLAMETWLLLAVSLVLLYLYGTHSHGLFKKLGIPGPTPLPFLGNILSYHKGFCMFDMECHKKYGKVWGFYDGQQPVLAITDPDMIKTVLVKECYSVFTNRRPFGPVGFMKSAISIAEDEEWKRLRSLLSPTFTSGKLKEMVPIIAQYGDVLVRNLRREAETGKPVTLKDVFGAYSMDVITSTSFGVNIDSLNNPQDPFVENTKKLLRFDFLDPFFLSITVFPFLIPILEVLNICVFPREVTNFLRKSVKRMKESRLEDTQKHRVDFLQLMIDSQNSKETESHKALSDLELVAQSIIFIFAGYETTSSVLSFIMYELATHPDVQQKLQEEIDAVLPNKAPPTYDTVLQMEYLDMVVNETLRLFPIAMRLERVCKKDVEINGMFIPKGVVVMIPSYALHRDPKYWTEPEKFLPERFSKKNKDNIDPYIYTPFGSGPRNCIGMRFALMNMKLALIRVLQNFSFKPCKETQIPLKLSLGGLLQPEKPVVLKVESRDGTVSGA
UniProt P31749: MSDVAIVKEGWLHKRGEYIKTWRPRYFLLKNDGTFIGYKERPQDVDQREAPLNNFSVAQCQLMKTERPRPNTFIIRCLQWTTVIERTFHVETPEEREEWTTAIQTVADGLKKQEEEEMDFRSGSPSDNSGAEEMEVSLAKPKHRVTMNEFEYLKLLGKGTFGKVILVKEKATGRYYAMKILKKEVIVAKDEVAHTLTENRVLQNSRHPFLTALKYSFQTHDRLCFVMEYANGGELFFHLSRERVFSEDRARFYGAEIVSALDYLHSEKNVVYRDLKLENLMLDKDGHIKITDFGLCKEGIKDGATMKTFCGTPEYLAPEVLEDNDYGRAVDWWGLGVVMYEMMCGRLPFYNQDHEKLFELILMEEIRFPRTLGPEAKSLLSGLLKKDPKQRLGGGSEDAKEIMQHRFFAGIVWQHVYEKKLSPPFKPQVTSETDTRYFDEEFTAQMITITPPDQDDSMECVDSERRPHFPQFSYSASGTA
UniProt P07333, whole entry, looked up: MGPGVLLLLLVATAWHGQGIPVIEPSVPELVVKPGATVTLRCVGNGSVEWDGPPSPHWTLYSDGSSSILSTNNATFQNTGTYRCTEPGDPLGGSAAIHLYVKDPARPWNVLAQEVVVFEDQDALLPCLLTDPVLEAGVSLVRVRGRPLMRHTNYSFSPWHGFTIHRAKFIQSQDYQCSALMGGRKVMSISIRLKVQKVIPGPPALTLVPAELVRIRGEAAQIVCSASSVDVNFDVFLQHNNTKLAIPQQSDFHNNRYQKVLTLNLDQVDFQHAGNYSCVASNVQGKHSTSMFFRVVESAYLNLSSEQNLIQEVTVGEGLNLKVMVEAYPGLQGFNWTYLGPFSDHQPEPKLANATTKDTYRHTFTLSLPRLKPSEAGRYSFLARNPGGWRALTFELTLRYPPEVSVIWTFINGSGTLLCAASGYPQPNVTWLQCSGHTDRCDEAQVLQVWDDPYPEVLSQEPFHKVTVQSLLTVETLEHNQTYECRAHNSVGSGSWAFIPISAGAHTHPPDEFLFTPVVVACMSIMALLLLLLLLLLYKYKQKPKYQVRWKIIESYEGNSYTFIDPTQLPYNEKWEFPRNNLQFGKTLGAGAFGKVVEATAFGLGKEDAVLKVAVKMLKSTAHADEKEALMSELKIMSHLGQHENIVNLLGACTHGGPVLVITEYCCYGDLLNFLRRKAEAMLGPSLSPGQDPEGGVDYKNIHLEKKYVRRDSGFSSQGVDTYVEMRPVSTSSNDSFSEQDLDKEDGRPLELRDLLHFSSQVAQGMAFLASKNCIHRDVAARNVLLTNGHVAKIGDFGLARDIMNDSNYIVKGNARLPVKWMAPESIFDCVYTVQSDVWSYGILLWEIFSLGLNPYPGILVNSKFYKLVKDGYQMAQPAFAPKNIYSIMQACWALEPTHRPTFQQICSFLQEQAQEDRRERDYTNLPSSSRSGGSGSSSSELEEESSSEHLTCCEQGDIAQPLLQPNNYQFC
UniProt P07948: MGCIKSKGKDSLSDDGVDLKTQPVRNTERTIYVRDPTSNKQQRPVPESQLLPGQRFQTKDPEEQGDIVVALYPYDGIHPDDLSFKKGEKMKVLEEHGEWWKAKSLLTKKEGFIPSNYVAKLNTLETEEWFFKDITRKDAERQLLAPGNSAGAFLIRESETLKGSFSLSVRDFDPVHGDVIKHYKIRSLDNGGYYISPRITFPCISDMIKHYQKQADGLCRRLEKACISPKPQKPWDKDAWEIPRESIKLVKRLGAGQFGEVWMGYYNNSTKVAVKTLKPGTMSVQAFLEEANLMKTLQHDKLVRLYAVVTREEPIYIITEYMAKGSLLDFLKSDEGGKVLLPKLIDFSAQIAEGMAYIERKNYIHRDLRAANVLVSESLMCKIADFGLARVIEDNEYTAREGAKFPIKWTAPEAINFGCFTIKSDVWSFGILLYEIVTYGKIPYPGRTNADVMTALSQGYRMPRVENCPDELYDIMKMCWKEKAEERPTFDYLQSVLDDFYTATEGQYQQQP
UniProt P49137, whole entry, looked up: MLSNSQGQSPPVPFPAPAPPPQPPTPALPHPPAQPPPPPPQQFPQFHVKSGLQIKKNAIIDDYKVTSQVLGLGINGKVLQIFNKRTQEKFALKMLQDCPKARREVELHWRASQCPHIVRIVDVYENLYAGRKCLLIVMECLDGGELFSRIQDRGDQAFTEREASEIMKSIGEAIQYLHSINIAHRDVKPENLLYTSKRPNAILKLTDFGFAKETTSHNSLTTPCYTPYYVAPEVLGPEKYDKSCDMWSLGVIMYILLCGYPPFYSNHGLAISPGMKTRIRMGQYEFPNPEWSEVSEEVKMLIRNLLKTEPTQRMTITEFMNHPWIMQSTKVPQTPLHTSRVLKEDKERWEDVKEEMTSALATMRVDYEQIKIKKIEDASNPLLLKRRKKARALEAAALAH
UniProt P14780: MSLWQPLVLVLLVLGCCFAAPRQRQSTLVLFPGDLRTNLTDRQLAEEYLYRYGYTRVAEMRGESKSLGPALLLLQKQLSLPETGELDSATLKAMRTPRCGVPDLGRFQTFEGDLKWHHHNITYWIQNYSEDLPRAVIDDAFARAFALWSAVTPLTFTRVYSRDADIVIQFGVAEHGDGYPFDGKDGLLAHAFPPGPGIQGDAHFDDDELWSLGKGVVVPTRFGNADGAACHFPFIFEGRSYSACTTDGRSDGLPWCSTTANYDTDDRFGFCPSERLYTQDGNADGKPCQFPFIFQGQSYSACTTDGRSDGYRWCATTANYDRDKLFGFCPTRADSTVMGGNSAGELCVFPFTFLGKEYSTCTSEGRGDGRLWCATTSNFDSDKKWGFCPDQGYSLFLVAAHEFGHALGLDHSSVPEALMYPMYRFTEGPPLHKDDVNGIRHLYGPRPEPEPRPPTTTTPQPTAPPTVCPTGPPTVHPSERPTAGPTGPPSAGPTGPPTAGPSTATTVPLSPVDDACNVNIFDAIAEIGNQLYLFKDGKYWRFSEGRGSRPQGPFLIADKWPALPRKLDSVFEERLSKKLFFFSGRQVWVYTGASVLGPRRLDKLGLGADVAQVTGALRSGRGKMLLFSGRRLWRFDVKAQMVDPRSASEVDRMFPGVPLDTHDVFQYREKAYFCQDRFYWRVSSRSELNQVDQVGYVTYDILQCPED
UniProt P43140: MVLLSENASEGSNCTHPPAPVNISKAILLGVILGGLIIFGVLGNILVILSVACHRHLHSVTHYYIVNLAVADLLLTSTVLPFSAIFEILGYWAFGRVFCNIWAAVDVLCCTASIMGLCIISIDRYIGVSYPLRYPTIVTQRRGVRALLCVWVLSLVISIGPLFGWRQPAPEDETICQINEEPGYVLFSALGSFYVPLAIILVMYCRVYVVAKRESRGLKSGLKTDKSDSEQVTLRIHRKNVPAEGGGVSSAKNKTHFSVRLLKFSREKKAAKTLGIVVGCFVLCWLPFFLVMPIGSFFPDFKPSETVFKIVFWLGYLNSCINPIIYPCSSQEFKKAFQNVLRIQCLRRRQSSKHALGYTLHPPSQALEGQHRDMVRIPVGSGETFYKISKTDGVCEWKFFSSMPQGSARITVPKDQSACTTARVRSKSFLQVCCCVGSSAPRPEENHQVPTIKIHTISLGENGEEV

Tests used:
[1] = read-out: ABC Transporter (ABCB11), ABCB11 (gene 8647); experiment: CLD_ABCB11_48hr: CellzDirect (CLD) Gene Expression Assay for ABC Transporter (ABCB11) at 48 hours (AID 2283697)
In short: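 Primary human hepatocytes from two donor preparations dosed daily for two days at multiple concentrations; 0.2% DMSO vehicle. ABCB11 mRNA at 48 h by quantitative nuclease protection assay, chemiluminescence; fitted for induction versus DMSO.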

[2] = read-out: Cytochrome P450 2B6 (Homo sapiens) (UniProt P20813); experiment: CLD_CYP2B6_48hr: CellzDirect (CLD) Gene Expression Assay for xenobiotic metabolism (CYP2B6) at 48 hours (AID 2283699);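 further: actives raise transcript level above DMSO so potency reflects induction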
In short: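 Primary human hepatocytes dosed daily for two days over multiple concentrations, 0.2% DMSO vehicle; CYP2B6 mRNA quantified at 48 h by qNPA chemiluminescence. Induction fitted as gain of signal versus DMSO; cytotoxicity annotated by morphology.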

[3] = CLD_ACTIN_48hr: CellzDirect (CLD) Gene Expression Assay for Baseline Control (Actin) at 48 hours (AID 2283702)
In short: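 Primary human hepatocytes (two donor preparations) dosed daily for two days with ToxCast chemicals at multiple concentrations versus 0.2% DMSO vehicle; harvested at 48 h. Actin mRNA measured as a background control by quantitative nuclease protection assay with chemiluminescence.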

[4] = read-out: Broad substrate specificity ATP-binding cassette transporter ABCG2 (Homo sapiens) (UniProt Q9UNQ0); experiment: CLD_ABCG2_48hr: CellzDirect (CLD) Gene Expression Assay for ABC Transporter (ABCG2) at 48 hours (AID 2283704);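 further: potency for induction of ABCG2 mRNA above the DMSO baseline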
In short: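 Primary human hepatocytes from two donors, dosed daily for 2 days, 0.2% DMSO vehicle, several concentrations. ABCG2 mRNA at 48 h by qNPA chemiluminescence, gain fitted versus DMSO; cytotoxicity flagged by morphology.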

[5] = read-out: HMG-CoA synthase (HMGCS2), HMGCS2 (gene 3158); experiment: CLD_HMGCS2_48hr: CellzDirect (CLD) Gene Expression Assay for HMG-CoA synthase (HMGCS2) at 48 hours (AID 2283711)
In short: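 Primary human hepatocytes from two donors dosed daily for two days, 0.2% DMSO vehicle. HMGCS2 mRNA measured 48 h after dosing by quantitative nuclease protection assay with chemiluminescent read-out; induction fitted relative to DMSO, cytotoxicity flagged by microscopy.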

[6] = biological target: human Caspase 5 (CASP5), CASP5 (gene 838) (UniProt P51878); experiment: NVS_ENZ_hCASP5: NovaScreen (NVS) Enzymatic Assay for human Caspase 5 (CASP5) (AID 2283137)
In short: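 Recombinant human caspase 5 expressed in E. coli, fluorogenic substrate, fluorescence read 2 h after dosing. Single-point 25 uM duplicate screen, then concentration-response to maximum 50 uM for actives; DMSO baseline.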

[7] = TAMU_PeakParms_SingleDonor1434_QT: Texas A&M University (TAMU) 1.5-hr Human Induced Pluripotent Stem Cell (iPSC)-derived Cardiomyocytes Calcium (Ca+2) Flux Assay for Cardiotoxicity: QT (decay-rise ratio) (AID 2284235)
In short: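 iPSC-derived cardiomyocytes (single donor 1434) dosed at 0.2, 1, 10, 100 uM final in 0.5% DMSO, 90 min at 37C. Ca2+ flux fluorescence decay/rise ratio; EC05 (5% increase versus DMSO) as POD, excluding beat-arrest and severe-notch data.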

[8] = biological target: bovine Gamma-Aminobutyric Acid Type A Receptor Agonist (GABAR Agonist), GABRA1 (gene 780973) (UniProt P08219); experiment: NVS_LGIC_bGABAR_Agonist: NovaScreen (NVS) Ligand-Gated Ion Channel Assay for bovine Gamma-Aminobutyric Acid Type A Receptor Agonist (GABAR Agonist) (AID 2283338)
In short: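 Radioligand binding to bovine cerebellar membranes in agonist format, read by filter-based scintillation counting after 1 h. Primary screen in duplicate at 25 uM, with actives followed in concentration series. Gain of signal versus DMSO.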

[9] = ArunA_CellTiter_hNC: Viability Assessment in the ArunA Biomedical's Oris Neural Crest (hNC) Cell Migration Assay (AID 2283752)
In short: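 Human H9-derived neural crest cells plated on Matrigel (60,000/well) with LIF and bFGF, incubated 16 h, then exposed 72 h to chemical in test medium. Viability measured with CellTiter Aqueous One reagent; loss of signal versus DMSO.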

[10] = ATG_M_06_XSP1: Attagene TRANS-FACTORIAL Multi-Species (XSP1) HepG2 Assay for M06 Transcription Factor (Internal Marker) (AID 2283790)
In short: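 Transfected HepG2 multi-reporter system treated 24 h in the presence of 3 nM 6-alpha-fluorotestosterone. The M06 internal marker transcript was quantified by RT-PCR with capillary electrophoresis as a background control, and gain of signal was scored versus DMSO.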

[11] = CCTE_Shafer_MEA_acute_LDH: CCTE's Lactate Dehydrogenase Assay for Cytotoxicity in the Neural Acute Assay, Shafer Lab (AID 2284086);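 further: active means LDH release rises above DMSO vehicle level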
In short: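 Medium from rat cortical neuron MEA cultures sampled right after the 40 min compound-exposure recording; released LDH measured by absorbance at 490 nm. Analyzed as signal gain relative to DMSO.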

[12] = biological target: Cytochrome P450 3A4 (Homo sapiens) (UniProt P08684); experiment: NVS_ADME_hCYP3A4: NovaScreen (NVS) CYP450-related Enzyme Activity (ADME) Assay for human CYP3A4 (AID 2283110)
In short: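 Cell-free assay using insect-cell-expressed human CYP3A4 with a fluorogenic substrate; fluorescence intensity was read 0.33 hour after dosing. Loss of signal relative to acetonitrile vehicle indicated inhibition. Primary single-concentration screen at 10 uM, in duplicate, then concentration series.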

[13] = biological target: human AKT serine/threonine Kinase 1 (AKT1), AKT1 (gene 207) (UniProt P31749); experiment: NVS_ENZ_hAKT1: NovaScreen (NVS) Enzymatic Assay for human AKT serine/threonine Kinase 1 (AKT1) (AID 2283138)
In short: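 Recombinant human AKT1 with a specific substrate, product separated by electrophoretic mobility shift, read after 1 h. Compounds at 25 uM in duplicate, then concentration-response up to 50 uM for hits; inhibition relative to DMSO.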

[14] = biological target: human Colony Stimulating Factor 1 Receptor (CSF1R), CSF1R (gene 1436) (UniProt P07333); experiment: NVS_ENZ_hCSF1R: NovaScreen (NVS) Enzymatic Assay for human Colony Stimulating Factor 1 Receptor (CSF1R) (AID 2283150)
In short: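 Cell-free recombinant human CSF1R kinase with fluorescent substrate, product separated by electrophoretic mobility shift; read 1 h after dosing. Primary screen at 25 uM in duplicate, actives then in concentration-response up to 50 uM, relative to DMSO.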

[15] = biological target: human LYN Proto-Oncogene, Src family Tyrosine Kinase (LynA), LYN (gene 4067) (UniProt P07948); experiment: NVS_ENZ_hLynA: NovaScreen (NVS) Enzymatic Assay for human LYN Proto-Oncogene, Src family Tyrosine Kinase (LynA) (AID 2283173)
In short: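 Recombinant kinase with fluorescent substrate; product separated from substrate by electrophoretic mobility shift and read 1 h after dosing. Duplicate screen at 25 uM, then concentration-response up to 50 uM; activity scored as signal loss against DMSO.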

[16] = biological target: human SRC Proto-Oncogene, Non-receptor Tyrosine Kinase (SRC), SRC (gene 6714) (UniProt P12931); experiment: NVS_ENZ_hSRC: NovaScreen (NVS) Enzymatic Assay for human SRC Proto-Oncogene, Non-receptor Tyrosine Kinase (SRC) (AID 2283223)
In short: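 Cell-free kinase activity assay with fluorescent substrate, product separated by electrophoretic mobility shift, read 1 h after dosing. Duplicate single point at 25 uM, then concentration-response up to 50 uM; loss of signal versus DMSO.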

[17] = biological target: human MAP Kinase-Activated Protein Kinase 2 (MAPKAPK2), MAPKAPK2 (gene 9261) (UniProt P49137); experiment: NVS_ENZ_hMAPKAPK2: NovaScreen (NVS) Enzymatic Assay for human MAP Kinase-Activated Protein Kinase 2 (MAPKAPK2) (AID 2283178)
In short: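 Cell-free recombinant human MAPKAPK2 activity measured by fluorescence with electrophoretic mobility shift separation of substrate and product, 1 hr after dosing. Loss of signal versus DMSO; primary screen at 25 uM, concentration-response up to 50 uM.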

[18] = biological target: human Matrix Metalloproteinase-9 (MMP9), MMP9 (gene 4318) (UniProt P14780); experiment: NVS_ENZ_hMMP9: NovaScreen (NVS) Enzymatic Assay for human Matrix Metalloproteinase-9 (MMP9) (AID 2283190);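 further: cell-free recombinant MMP9 protease activity read by fluorescent substrate signal; active means inhibition seen as loss of fluorescence signal versus DMSO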
In short: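 Extracted enzyme, fluorescent substrate, 1 h post-dose read. Single conc 25 uM in duplicate, then concentration series for actives. Activity = signal loss relative to DMSO negative control.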

[19] = biological target: rat Adrenergic, Alpha 1A Receptor (Adra1A), Adra1a (gene 29412) (UniProt P43140); experiment: NVS_GPCR_rAdra1A: NovaScreen (NVS) G Protein-Coupled Receptor Assay for rat Adrenergic, Alpha 1A Receptor (Adra1A) (AID 2283296)
In short: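 Rat cortical membranes pretreated with chlorethyl clonidine; competitive radioligand displacement, 1 h. Filter-based scintillation counting. Primary screen in duplicate at 25 uM, actives followed in concentration series.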

[20] = biological target: rat Glutamate, NMDA Agonist Site (GluNMDA), Grin1 (gene 24408) (UniProt P35439); experiment: NVS_LGIC_rGluNMDA_Agonist: NovaScreen (NVS) Ligand-Gated Ion Channel Assay for rat Glutamate, NMDA Agonist Site (GluNMDA) (AID 2283327)
In short: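 Rat forebrain membranes, radioligand binding in the agonist-site protocol; 1 h after dosing; filter-based scintillation counting. Single-concentration duplicate screen at 25 uM, then concentration-response up to 50 uM for actives; gain-of-signal vs DMSO.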

SMILES: CCOC(=O)[C@H](C)Oc1ccc(Oc2nc3ccc(Cl)cc3o2)cc1
- outcome [1]: inactive
- AC50 [2]: inconclusive: 0.000512 µM
- outcome [3]: inactive
- AC50 [4]: inconclusive: 20 µM
- outcome [5]: inactive

SMILES: CC(=O)[C@H]1CC[C@H]2[C@@H]3CCC4=CC(=O)CC[C@]4(C)[C@H]3CC[C@]12C
- AC50 [6]: inconclusive: 25 µM
- outcome [7]: inactive

SMILES: CC(C)(c1cc(Br)c(O)c(Br)c1)c1cc(Br)c(O)c(Br)c1
- AC50 [8]: active: 44.4 µM
- AC50 [9]: inconclusive: 5 µM
- outcome [10]: inactive
- AC50 [11]: inconclusive: 5.7 µM
- AC50 [7]: inconclusive: 0.902 µM

SMILES: Nc1cc([N+](=O)[O-])ccc1O
- AC50 [11]: inconclusive: 0.00732 µM

SMILES: CC/C=C\CCOC(=O)c1ccccc1O
- AC50 [12]: inconclusive: 1.17 µM

SMILES: COC(=O)[C@H]1[C@H]2C[C@@H]3c4[nH]c5cc(OC)ccc5c4CCN3C[C@H]2C[C@@H](OC(=O)c2cc(OC)c(OC)c(OC)c2)[C@@H]1OC
- AC50 [9]: inconclusive: 50 µM

SMILES: O=C(OCCCCCOC(=O)c1ccccc1)c1ccccc1
- outcome [13]: inactive
- outcome [14]: inactive
- AC50 [15]: inconclusive: 0.0683 µM
- outcome [16]: inactive
- AC50 [8]: inconclusive: 25 µM

SMILES: CN(C)c1ccc(Cc2ccc(N(C)C)cc2)cc1
- AC50 [17]: inconclusive: 25 µM

SMILES: C=CC(=O)OCCCC
- AC50 [6]: inconclusive: 25.6 µM
- AC50 [18]: inconclusive: 0.0118 µM

SMILES: Oc1ccc2c(c1)OC[C@@H](N1CCC(O)(c3ccc(F)cc3)CC1)[C@H]2O
- AC50 [19]: inconclusive: 2.99 µM
- outcome [20]: inactive

SMILES: O=C(NO)C1(NS(=O)(=O)c2ccc(Oc3ccc(F)cc3)cc2)CCOCC1
- AC50 [13]: inconclusive: 25 µM
- AC50 [14]: inconclusive: 25 µM
- outcome [15]: inactive
- outcome [17]: inactive
- AC50 [16]: inconclusive: 25 µM

SMILES: C=C(C)C1CC=C(C)C(OC(C)=O)C1 (stereo not given)
- AC50 [12]: inconclusive: 5 µM

SMILES: CCc1cc(SCc2sc(-c3ccc(C(F)(F)F)cc3)nc2CN2CCN(c3ccc(OC)cc3)CC2)ccc1OCC(=O)O
- AC50 [18]: active: 8.8 µM
- AC50 [19]: inconclusive: 0.153 µM

SMILES: CCCCC(CC)COC(=O)c1ccccc1C(=O)O (stereo not given)
- AC50 [20]: inconclusive: 25 µM
- outcome [1]: inactive
- AC50 [2]: active: 20 µM
- AC50 [3]: inconclusive: 10.8 µM
- AC50 [4]: inconclusive: 20 µM
- outcome [5]: inactive
- outcome [10]: inactive
